In this data set the test system is AMPA receptors in the brain. The data set is described as follows: PET imaging in medial temporal lobe epilepsy patients. In kind it is in vivo, human. As for the experimental part: PET imaging was performed on medial temporal lobe epilepsy patients of three examples. […] Absorption correction CT imaging was performed for about one minute, and then [^11C] K-2 of about 370 MBq was administered intravenously over one minute. Thereafter, imaging was performed for 90 minutes. For the imaging, the PET/CT device “Aquiduo” (Toshiba Medical Systems Corporation) was used. In list data which was collected, dynamic images were reconstructed by the OS-EM method.
The reconstructed image was analyzed with the PMOD image analysis software (PMOD technologies) by integrating a PET image on a standardized MRI image. As the reconstructed image, a SUVR (standardized uptake value ratio) image was used. The SUVR image was produced by dividing an addition average image for 20 minutes until the elapse of 30 to 50 minutes since the administration of the PET drug by the average value of the amount of radiation for the same time which was accumulated in corpus callosum that was a reference region.
The reconstructed image was analyzed with the PMOD image analysis software (PMOD technologies) by integrating a PET image on a standardized MRI image. As the reconstructed image, a subtraction image was used so as to produce a reconstructed image as follows. An average image (image including a large number of specific bonds to the AMPA receptors) for 20 minutes from the elapse of 30 minutes (an example of the first time) to the elapse of 50 minutes (an example of the second time) since the administration of the PET drug and an average image (image including a large amount of blood flow ingredient) for 1 minute from the elapse of 1.5 minutes to the elapse of 2.5 minutes were calculated. In each time period, by division by the average value of the amount of radiation accumulated in the entire brain, the SUVR image in which the entire brain was the reference region was calculated. From the SUVR image for 20 minutes from the elapse of 30 minutes to the elapse of 50 minutes since the administration of the PET drug, the SUVR image for 1 minute from the elapse of 1.5 minutes to the elapse of 2.5 minutes was subtracted, and thus a difference was calculated, with the result that the subtraction image was produced. […]
The reconstructed image was analyzed with the PMOD image analysis software (PMOD technologies) by integrating VOIs including a plurality of regions of frontal lobe, temporal lobe, occipital lobe, parietal lobe, hippocampus, amygdala, putamen, corpus callosum, cerebellum, bridge and the like with one formed on a standardized MRI image. […] In each time period, by division by the average value of the amount of radiation accumulated in the entire brain, the SUVR image in which the entire brain was the reference region was calculated. […]

From patent US20200384134A1, “IMAGING METHOD OF AMPA RECEPTORS IN BRAIN OF PRIMATE ORGANISM, PROGRAM, DIAGNOSTIC AGENT, COMPANION DIAGNOSTIC AGENT, DRUG, SCREENING METHOD, INPUT TERMINAL, SERVER AND SYSTEM” (Public University Corporation Yokohama City University, priority 2017, published 2020) come the findings set out here.

Turning to `[11CH3]N(CCSc1cc(F)c(OCC(N)=O)c(F)c1)S(=O)(=O)c1ccccc1` [[^11C] K-2, [4-[2-(benzenesulfonyl-[^11C]methyl-amino)-ethylsulfanyl]-2,6-difluorophenoxy]-acetamide], the “accumulation in medial temporal lobe on a focus side, SUVR image” value (30 to 50 minutes after administration, reference region corpus callosum, FIG. 15) is given as “high accumulation”. For the setting “SUVR 30-50 minutes minus SUVR 1.5-2.5 minutes, entire brain as reference, FIG. 16”, the “accumulation in medial temporal lobe on the focus side, subtraction image” value is reported as “high accumulation”. Further, the “Asymmetry index (AI), [11C] K-2 subtraction images compared with SUVR image of FDG” value (medial temporal lobe epilepsy patients, FIG. 18) is recorded as “significantly high value”. The “Asymmetry index (AI), epilepsy patient compared with healthy person” value (subtraction images, temporal lobe VOIs, FIG. 17) is reported as “significantly high AI”.
